Results are given in words; binding and its absence hold for the method and conditions named. Binding seen in cells or lysates may run through a third protein. Some binding calls cover weakened binding; strength is not graded here. For part of these data: Sequences can lack the tags named with a protein. Values belong to the molecule of their own block, whether it stands above or below them.
Key:
[1] = molecular target: T1, GKN2 (myc-tagged) (human) (UniProt Q86XP6); test: co-IP; anti-myc immunoprecipitation from lysates of MGC cells expressing myc-GKN2 or SGC cells expressing myc-Hsc70; detected by blot with indicated antibodies
T1 sequence: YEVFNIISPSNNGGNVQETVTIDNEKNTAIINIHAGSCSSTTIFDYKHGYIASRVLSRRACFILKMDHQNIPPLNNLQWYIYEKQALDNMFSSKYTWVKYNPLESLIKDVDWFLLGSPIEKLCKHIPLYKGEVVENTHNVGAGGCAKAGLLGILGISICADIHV

By UniProt entry, the sequences of proteins in these tests, tags left out.
UniProt Q04206: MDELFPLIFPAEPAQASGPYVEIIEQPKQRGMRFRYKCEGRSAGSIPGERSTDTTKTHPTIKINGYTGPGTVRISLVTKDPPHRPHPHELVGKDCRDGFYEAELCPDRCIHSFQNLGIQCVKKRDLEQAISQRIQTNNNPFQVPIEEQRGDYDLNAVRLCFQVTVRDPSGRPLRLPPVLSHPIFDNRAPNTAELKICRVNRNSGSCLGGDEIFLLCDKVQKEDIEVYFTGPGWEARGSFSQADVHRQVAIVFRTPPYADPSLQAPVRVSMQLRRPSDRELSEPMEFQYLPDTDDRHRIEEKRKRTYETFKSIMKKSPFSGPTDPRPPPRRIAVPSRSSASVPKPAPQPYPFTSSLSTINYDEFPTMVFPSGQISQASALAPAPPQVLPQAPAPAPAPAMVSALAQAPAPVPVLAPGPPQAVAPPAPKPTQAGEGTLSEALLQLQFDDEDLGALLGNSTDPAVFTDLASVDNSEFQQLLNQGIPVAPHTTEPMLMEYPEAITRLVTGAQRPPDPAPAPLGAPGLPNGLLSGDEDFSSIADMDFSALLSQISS
UniProt P11142: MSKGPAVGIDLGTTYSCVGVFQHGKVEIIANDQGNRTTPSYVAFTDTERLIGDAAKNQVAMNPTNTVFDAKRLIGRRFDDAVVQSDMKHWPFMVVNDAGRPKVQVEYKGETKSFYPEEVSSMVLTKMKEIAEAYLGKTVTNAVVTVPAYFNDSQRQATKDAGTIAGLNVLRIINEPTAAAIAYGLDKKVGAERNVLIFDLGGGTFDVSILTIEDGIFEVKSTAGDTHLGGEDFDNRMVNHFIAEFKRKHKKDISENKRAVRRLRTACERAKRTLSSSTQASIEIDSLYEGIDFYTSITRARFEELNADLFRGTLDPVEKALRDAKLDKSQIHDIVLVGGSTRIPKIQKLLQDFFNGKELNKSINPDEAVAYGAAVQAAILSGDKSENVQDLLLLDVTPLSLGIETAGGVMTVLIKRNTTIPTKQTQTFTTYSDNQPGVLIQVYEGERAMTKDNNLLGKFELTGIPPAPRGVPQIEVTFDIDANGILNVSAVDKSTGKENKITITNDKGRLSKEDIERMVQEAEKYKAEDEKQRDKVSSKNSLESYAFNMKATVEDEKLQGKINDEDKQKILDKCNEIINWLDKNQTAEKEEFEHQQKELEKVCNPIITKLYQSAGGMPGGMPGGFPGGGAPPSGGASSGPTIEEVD

p65 = p65 (UniProt Q04206); test: co-IP; Co-IP assay of Hsc70 and p65 (Figure S5c); cells not given
myc-Hsc70 = myc-Hsc70 (UniProt P11142); test: co-IP; anti-myc immunoprecipitation from lysates of MGC cells expressing myc-GKN2 or SGC cells expressing myc-Hsc70; detected by blot with indicated antibodies

binding [1]: binds
Molecule: Hsc70 (from UniProt P11142 1-646)

binding (p65): binds
Molecule: Hsc70 in the co-immunoprecipitation with p65 (from UniProt P11142 1-646)

binding (myc-Hsc70): binds
B1: GKN2 in SGC cells expressing myc-Hsc70 (protein, UniProt Q86XP6 21-184)
chain: T1 sequence

Source: paper PMC6683576
